In article PMC12255305, “A transfer RNA methyltransferase with an unusual domain composition catalyzes 2′-O-methylation at position 6 in tRNA” (Nucleic Acids Research, 2025):
Construct, isoform or probe ends are uncertain for at least one entry. A negative result means that nothing was seen under these conditions. Where a protein sequence is shown, tags need not be part of it.

Target: T1, TrmTS (TK1257 gene product) (Thermococcus kodakarensis KUW1) (UniProt Q5JGM1)
T1 sequence (looked up, limits assumed): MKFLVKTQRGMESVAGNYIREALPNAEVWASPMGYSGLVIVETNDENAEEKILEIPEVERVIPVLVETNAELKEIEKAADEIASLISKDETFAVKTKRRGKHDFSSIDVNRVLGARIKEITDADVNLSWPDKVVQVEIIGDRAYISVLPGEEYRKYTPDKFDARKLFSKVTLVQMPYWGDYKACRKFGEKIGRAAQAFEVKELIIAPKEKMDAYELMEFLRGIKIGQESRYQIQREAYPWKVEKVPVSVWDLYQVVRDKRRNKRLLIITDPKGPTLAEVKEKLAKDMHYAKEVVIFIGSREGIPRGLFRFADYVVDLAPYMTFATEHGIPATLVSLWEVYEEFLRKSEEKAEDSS
Experiment: competition (inhibition of methylation of wild-type tRNA-Trp transcript)
Conditions: SAM, competitor against wild-type tRNA-Trp transcript; recombinant protein

Sequence: GGGGGCGUGGUGUAGCCUGGUCCAUCAUCGCGGGCUCCAGACCCGCGGACCGGGGUUCAAAUCCCCGCGCCCCC [tRNA-Trp dACCA terminus transcript (-ACCA)]
- binding result: no binding
